From patent publication US20260022143A1 (JANSSEN PHARMACEUTICA NV, priority 2022, published 2026) come the findings set out here.

Data set [1] is described as follows: general procedure: Fmoc solid-phase peptide synthesis; Sar-CTC Resin; HBTU/DIEA (PyAOP/DIEA for some couplings); Oxyma/DIC. The conditions noted are these: whole synthesis, scale 0.30 mmol, one disulfide bridge.
Data set [2] in a line: general procedure: Fmoc solid-phase peptide synthesis; Rink Amide MBHA resin (C-terminal amides); pre-loaded Wang resin (C-terminal acids); HBTU/DIEA (PyAOP/DIEA for some couplings); Oxyma/DIC. The note with it: one disulfide bridge; for oxidative folding yield: oxidative folding step.

Substance “CF3CO-Pen(3)-N(N(Me)2)-T-7MeW-K(NMeAc)-Pen(3)-AEF-2Nal-THP-K(NMeAc)-N-3Pya-Sar-CON(Me)2” returned an isolated mass in data set [1] of 49.7 mg. The substance also came in with an oxidative folding yield in data set [2] (for this step) of 12.1%. In addition, the “final HPLC purity” value in data set [2] (whole synthesis, analysis on a C18 column, flow rate 1 mL/min) came out at 95.0%. The isolated yield in data set [2] (whole synthesis, overall) worked out at 6.83%.
Turning to “MeCO-Pen(3)—N-T-7MeW—K(Ac)-Pen(3)-AEF-2Nal-THIP-E-N-3Pya-Sar-COMor”, the oxidative folding yield result in data set [2] (sequence written open) is “Yield: 12.6%”.
The same measure, in the same setting: the value for “MeCO-k(Me)3-Pen(3)-N(N(Me)2)-T-7MeW-K(NMeAc)-Pen(3)-AEF(N(Me)2)-2Nal-THP-E-N-3Pya-Sar-CON(Me)2” was “Y=13.4%”.
Same read-out and setting: the result for “cPEG5aCO-Pen(3)-N(N(Me)2)-T-7MeW-Dab(NMecPEG5a)-Pen(3)-AEF-2Nal-THP-E-N-3Pya-Sar-CON(Me)2” reads “Y=10%”.
